Residue numbers refer to the chain shown, from its start. Names may count otherwise. Results are given in words; binding and its absence hold for the method and conditions named. Some results given as binding are weak or reduced against the parent protein; the word gives no strength.
What was measured:
[1] = target: T1, human C1s mutant M20 (A320S) (human, UniProt P09871 16-688); assay: ELISA, mutant coated on plate
T1 construct: The entry is the mutant itself
T1 sequence: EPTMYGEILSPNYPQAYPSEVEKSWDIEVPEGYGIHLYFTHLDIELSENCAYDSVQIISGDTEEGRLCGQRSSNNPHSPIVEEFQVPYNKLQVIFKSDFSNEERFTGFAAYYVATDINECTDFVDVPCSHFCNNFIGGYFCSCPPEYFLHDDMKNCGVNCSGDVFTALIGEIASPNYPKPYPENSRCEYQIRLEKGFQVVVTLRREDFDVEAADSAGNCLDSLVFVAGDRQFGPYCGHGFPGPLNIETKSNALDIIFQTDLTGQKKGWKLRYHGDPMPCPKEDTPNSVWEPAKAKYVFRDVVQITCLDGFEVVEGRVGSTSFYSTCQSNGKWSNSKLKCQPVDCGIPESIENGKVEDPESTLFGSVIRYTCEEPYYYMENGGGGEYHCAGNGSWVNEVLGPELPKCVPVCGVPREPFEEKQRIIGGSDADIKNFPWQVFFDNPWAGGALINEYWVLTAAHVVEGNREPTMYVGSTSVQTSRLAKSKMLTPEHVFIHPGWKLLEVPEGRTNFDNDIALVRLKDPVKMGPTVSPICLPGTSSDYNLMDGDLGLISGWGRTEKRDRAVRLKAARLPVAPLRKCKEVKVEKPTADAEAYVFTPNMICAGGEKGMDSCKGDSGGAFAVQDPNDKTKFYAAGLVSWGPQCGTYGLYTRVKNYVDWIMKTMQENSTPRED

[2] = target: T2, active human C1s (CompTech A104 C1s Enzyme) (human) (UniProt P09871); assay: ELISA, C1s coated on plate
T2 sequence (looked up): T1 sequence with S319A

[3] = target: T2, active human C1s (CompTech A104 C1s Enzyme) (human); assay: BLI (Octet RED96e), antibody on AHC biosensor, C1s in solution
[4] = target: T2, active human C1s (CompTech A104 C1s Enzyme) (human); assay: BLI (Octet RED96e), antibody on AHC biosensor, active human C1s in solution

Measured: binding

B1: Anti-C1s antibody hz2-8 (H1L2 G80A) (antibody, V domains shown)
VH: QVQLVQSGAEVKKPGASVKVSCKASGFNIKEYYMHWVRQAPEQGLEWMGWIDPENADTIYAQKFQGRVTITADTSTNTAYMELSSLRSEDTAVYYCARSRLFFAYWGQGTLVTVSS
VL: DIQMTQSPKSLSASVGDRVTITCRASQDVRTALDWYQQKPGQSPKLLIYSASYRYSGVPSRFSGSGSGTDFTLTISSLQPEDFATYYCQQQYTTPYTFGQGTKLEIKR
notes: Humanized variant with G80A in HC CDR2 (already in the entry), human IgG1 / kappa
binds: [1]

B2: Anti-C1s antibody hz2-8 (H1L2 G80A/T82A) (antibody, V domains shown)
VH: B1 VH with T58A
VL: B1 VL
notes: Humanized variant with G80A and T82A in HC CDR2 (already in the entry), human IgG1 / kappa
binds: [2] | [1] | [3] | [4]

B3: Anti-C1s antibody hz2-7(H1L2) (antibody, V domains shown)
VH: EVQLLESGGGLVQPGGSLRLSCAASGFTFSNYFMNWVRQAPGKGLEWVSEIRLKFTNYATHYADSVKGRFTISRDDSKSTLYLQMNSLRAEDTAVYYCTRDYGSRNGYFDYWGQGTLVTVSS
VL: DIVMTQTPLSLPVTPGEPASISCRSSKSLLHSNGNTFLYWFLQKPGQSPQLLIYRMSNLASGVPDRFSGSGSGTDFTLKISRVEAEDVGVYYCMQHLEYPYTFGGGTKLEIKR
notes: Humanized, human IgG1 / kappa; also called hz2-7(1L2)
binds: [2] | [1] | [3] | [4]

From patent US20230051715A1 (MABWELL THERAPEUTICS, published 2023)
